# Experimental data: the supplement of paper PMC8728848
# This is one part of the list.
# B1: RbmA (Vibrio cholerae), A0A2H4NFB8 (protein)
# chain: MSNFKGSIMNKRHYYLASCLALLFSTASYAEVDCELQPVIEANLSLNQNQLASNGGYISSQLGIRNESCETVKFKYWLSIKGPEGIYFPAKAVVGVDTAQQESDALTDGRMLNVTRGFWVPEYMADGKYTVSLQVVAENGEVFKANQEFVKGGDLNSLPELNGLTIDIKNQFGINSVESTGGFVPFTIDLNNGREGEAKVEFWMTAVGPDGLIIPVHSREKWMIIAGNTFSKVRGINFDKSYPAGEYTINAQVVDIVSGERVEQLMTVVKK
# Legend:
# Assay in all cases: glycan array binding signal (z-score within array); higher = stronger binding
# Conditions in all cases: glycan notation: IUPAC condensed, linker removed
# [1] = biological target: Fuc(a1-2)[Gal(a1-3)]Gal(b1-4)GlcNAc(b1-2)Man(a1-3)[Fuc(a1-2)[Gal(a1-3)]Gal(b1-4)GlcNAc(b1-2)Man(a1-6)]Man(b1-4)GlcNAc(b1-4)GlcNAc
# Method in brief: (§1)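 Glycan array data were curated from 3228 arrays in the Consortium for Functional Glycomics database and kept only where the protein sequence was available. Glycan names were converted to IUPAC-condensed notation, and columns mapping to the same glycan were averaged. The binding signal is a within-array Z-score, averaged across arrays of the same protein sequence at different concentrations or buffers and across linkers. Negative Z-scores can be read as non-binding.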
# [2] = biological target: Fuc(a1-2)[Gal(a1-3)]Gal(b1-4)GlcNAc(b1-2)Man(a1-3)[Fuc(a1-2)[Gal(a1-3)]Gal(b1-4)GlcNAc(b1-2)Man(a1-6)]Man(b1-4)GlcNAc(b1-4)[Fuc(a1-6)]GlcNAc
# Method in brief: as §1
# [3] = biological target: Fuc(a1-2)[Gal(a1-3)]Gal(b1-4)GlcNAc(b1-3)GalNAc
# Method in brief: as §1
# [4] = biological target: Fuc(a1-2)[Gal(a1-3)]Gal(b1-4)GlcNAc(b1-6)GalNAc
# Method in brief: as §1
# [5] = biological target: Fuc(a1-2)[Gal(a1-3)]Gal(b1-4)[Fuc(a1-3)]Glc
# Method in brief: as §1
# [6] = biological target: Fuc(a1-2)[Gal(a1-3)]Gal(b1-4)[Fuc(a1-3)]GlcNAc
# Method in brief: as §1
# [7] = biological target: Fuc(a1-2)[Gal(a1-3)]Gal(b1-4)[Fuc(a1-3)]GlcNAc(b1-3)GalNAc
# Method in brief: as §1
# [8] = biological target: Fuc(a1-2)[Gal(a1-4)]Gal(b1-4)GlcNAc
# Method in brief: as §1
# [9] = biological target: Fuc(a1-2)[GalNAc(a1-3)]Gal
# Method in brief: as §1
# [10] = biological target: Fuc(a1-2)[GalNAc(a1-3)]Gal(b1-3)GalNAc(a1-3)[Fuc(a1-2)]Gal(b1-4)GlcNAc
# Method in brief: as §1
# [11] = biological target: Fuc(a1-2)[GalNAc(a1-3)]Gal(b1-3)GalNAc(b1-3)Gal(a1-4)Gal(b1-4)Glc
# Method in brief: as §1
# [12] = biological target: Fuc(a1-2)[GalNAc(a1-3)]Gal(b1-3)GlcNAc
# Method in brief: as §1
# [13] = biological target: Fuc(a1-2)[GalNAc(a1-3)]Gal(b1-3)GlcNAc(b1-2)Man(a1-3)[Fuc(a1-2)[GalNAc(a1-3)]Gal(b1-3)GlcNAc(b1-2)Man(a1-6)]Man(b1-4)GlcNAc(b1-4)GlcNAc
# Method in brief: as §1
# [14] = biological target: Fuc(a1-2)[GalNAc(a1-3)]Gal(b1-3)GlcNAc(b1-2)Man(a1-3)[Fuc(a1-2)[GalNAc(a1-3)]Gal(b1-3)GlcNAc(b1-2)Man(a1-6)]Man(b1-4)GlcNAc(b1-4)[Fuc(a1-6)]GlcNAc
# Method in brief: as §1
# [15] = biological target: Fuc(a1-2)[GalNAc(a1-3)]Gal(b1-3)GlcNAc(b1-3)GalNAc
# Method in brief: as §1
# [16] = biological target: Fuc(a1-2)[GalNAc(a1-3)]Gal(b1-3)GlcNAc(b1-6)GalNAc
# Method in brief: as §1
# [17] = biological target: Fuc(a1-2)[GalNAc(a1-3)]Gal(b1-4)Glc
# Method in brief: as §1
# [18] = biological target: Fuc(a1-2)[GalNAc(a1-3)]Gal(b1-4)GlcNAc
# Method in brief: as §1
# [19] = biological target: Fuc(a1-2)[GalNAc(a1-3)]Gal(b1-4)GlcNAc(b1-2)Man
# Method in brief: as §1
# [20] = biological target: Fuc(a1-2)[GalNAc(a1-3)]Gal(b1-4)GlcNAc(b1-2)Man(a1-3)[Fuc(a1-2)[GalNAc(a1-3)]Gal(b1-4)GlcNAc(b1-2)Man(a1-6)]Man(b1-4)GlcNAc(b1-4)GlcNAc
# Method in brief: as §1
# [21] = biological target: Fuc(a1-2)[GalNAc(a1-3)]Gal(b1-4)GlcNAc(b1-2)Man(a1-3)[Fuc(a1-2)[GalNAc(a1-3)]Gal(b1-4)GlcNAc(b1-2)Man(a1-6)]Man(b1-4)GlcNAc(b1-4)[Fuc(a1-6)]GlcNAc
# Method in brief: as §1
# [22] = biological target: Fuc(a1-2)[GalNAc(a1-3)]Gal(b1-4)GlcNAc(b1-3)Gal(b1-4)GlcNAc
# Method in brief: as §1
# [23] = biological target: Fuc(a1-2)[GalNAc(a1-3)]Gal(b1-4)GlcNAc(b1-3)Gal(b1-4)GlcNAc(b1-3)Gal(b1-4)GlcNAc
# Method in brief: as §1
# [24] = biological target: Fuc(a1-2)[GalNAc(a1-3)]Gal(b1-4)GlcNAc(b1-3)GalNAc
# Method in brief: as §1
# [25] = biological target: Fuc(a1-2)[GalNAc(a1-3)]Gal(b1-4)GlcNAc(b1-3)[Fuc(a1-2)[GalNAc(a1-3)]Gal(b1-4)GlcNAc(b1-6)]GalNAc
# Method in brief: as §1
# [26] = biological target: Fuc(a1-2)[GalNAc(a1-3)]Gal(b1-4)GlcNAc(b1-6)GalNAc
# Method in brief: as §1
# [27] = biological target: Fuc(a1-2)[GalNAc(a1-3)]Gal(b1-4)[Fuc(a1-3)]GlcNAc
# Method in brief: as §1
# [28] = biological target: Fuc(a1-2)[GalNAc(a1-3)]Gal(b1-4)[Fuc(a1-3)]GlcNAc(b1-3)GalNAc
# Method in brief: as §1
# [29] = biological target: Fuc(a1-2)[GalNAc(a1-4)]Gal(b1-4)GlcNAc
# Method in brief: as §1
# [30] = biological target: Fuc(a1-2)[GalNAc(b1-3)]Gal
# Method in brief: as §1
# Fuc(a1-3)GlcNAc = biological target: Fuc(a1-3)GlcNAc
# Method in brief: as §1
# [31] = biological target: Fuc(a1-3)[Gal(b1-4)]Glc6S
# Method in brief: as §1
# [32] = biological target: Fuc(a1-3)[Gal(b1-4)]GlcNAc
# Method in brief: as §1
# [33] = biological target: Fuc(a1-3)[Gal(b1-4)]GlcNAc(b1-2)Man
# Method in brief: as §1
# [34] = biological target: Fuc(a1-3)[Gal(b1-4)]GlcNAc(b1-2)Man(a1-3)[Fuc(a1-3)[Gal(b1-4)]GlcNAc(b1-2)Man(a1-6)]Man(b1-4)GlcNAc(b1-4)GlcNAc
# Method in brief: as §1
# [35] = biological target: Fuc(a1-3)[Gal(b1-4)]GlcNAc(b1-2)Man(a1-3)[Fuc(a1-3)[Gal(b1-4)]GlcNAc(b1-2)Man(a1-6)]Man(b1-4)GlcNAc(b1-4)[Fuc(a1-6)]GlcNAc
# Method in brief: as §1
# [36] = biological target: Fuc(a1-3)[Gal(b1-4)]GlcNAc(b1-3)Gal(b1-3)[Fuc(a1-4)]GlcNAc
# Method in brief: as §1
binder,measurement,setting,value
B1,glycan array binding signal (z-score),[1],-0.767
same,glycan array binding signal (z-score),[2],-0.172
same,glycan array binding signal (z-score),[3],-0.562
same,glycan array binding signal (z-score),[4],-0.877
same,glycan array binding signal (z-score),[5],-0.11
same,glycan array binding signal (z-score),[6],0.204
same,glycan array binding signal (z-score),[7],-0.943
same,glycan array binding signal (z-score),[8],-0.6
same,glycan array binding signal (z-score),[9],0.428
same,glycan array binding signal (z-score),[10],-0.209
same,glycan array binding signal (z-score),[11],0.289
same,glycan array binding signal (z-score),[12],-0.442
same,glycan array binding signal (z-score),[13],0.451
same,glycan array binding signal (z-score),[14],-1.44
same,glycan array binding signal (z-score),[15],0.855
same,glycan array binding signal (z-score),[16],-0.859
same,glycan array binding signal (z-score),[17],-0.634
same,glycan array binding signal (z-score),[18],-0.331
same,glycan array binding signal (z-score),[19],-0.393
same,glycan array binding signal (z-score),[20],-0.735
same,glycan array binding signal (z-score),[21],0.066
same,glycan array binding signal (z-score),[22],-0.198
same,glycan array binding signal (z-score),[23],1.52
same,glycan array binding signal (z-score),[24],2.25
same,glycan array binding signal (z-score),[25],0.012
same,glycan array binding signal (z-score),[26],1.33
same,glycan array binding signal (z-score),[27],-0.042
same,glycan array binding signal (z-score),[28],0.264
same,glycan array binding signal (z-score),[29],-0.816
same,glycan array binding signal (z-score),[30],-0.195
same,glycan array binding signal (z-score),Fuc(a1-3)GlcNAc,-0.597
same,glycan array binding signal (z-score),[31],-0.877
same,glycan array binding signal (z-score),[32],-0.216
same,glycan array binding signal (z-score),[33],-0.564
same,glycan array binding signal (z-score),[34],1.58
same,glycan array binding signal (z-score),[35],-0.094
same,glycan array binding signal (z-score),[36],-0.858

# 2 entries drawn at random from those above, as already listed:
binder,measurement,setting,value
B1,glycan array binding signal (z-score),[7],-0.943
same,glycan array binding signal (z-score),[35],-0.094
